No constants are given. Whether binding was seen depends on the method and setting. Binding seen in cells or lysates may run through a third protein. Some binding calls cover weakened binding; strength is not graded here.
Biological target: T1, Mage-D1 (MAGE family member D1; melanoma-associated antigen D1) (rat (endogenous in E19.5 d EMSCs)) (UniProt Q9ES73)
T1 sequence: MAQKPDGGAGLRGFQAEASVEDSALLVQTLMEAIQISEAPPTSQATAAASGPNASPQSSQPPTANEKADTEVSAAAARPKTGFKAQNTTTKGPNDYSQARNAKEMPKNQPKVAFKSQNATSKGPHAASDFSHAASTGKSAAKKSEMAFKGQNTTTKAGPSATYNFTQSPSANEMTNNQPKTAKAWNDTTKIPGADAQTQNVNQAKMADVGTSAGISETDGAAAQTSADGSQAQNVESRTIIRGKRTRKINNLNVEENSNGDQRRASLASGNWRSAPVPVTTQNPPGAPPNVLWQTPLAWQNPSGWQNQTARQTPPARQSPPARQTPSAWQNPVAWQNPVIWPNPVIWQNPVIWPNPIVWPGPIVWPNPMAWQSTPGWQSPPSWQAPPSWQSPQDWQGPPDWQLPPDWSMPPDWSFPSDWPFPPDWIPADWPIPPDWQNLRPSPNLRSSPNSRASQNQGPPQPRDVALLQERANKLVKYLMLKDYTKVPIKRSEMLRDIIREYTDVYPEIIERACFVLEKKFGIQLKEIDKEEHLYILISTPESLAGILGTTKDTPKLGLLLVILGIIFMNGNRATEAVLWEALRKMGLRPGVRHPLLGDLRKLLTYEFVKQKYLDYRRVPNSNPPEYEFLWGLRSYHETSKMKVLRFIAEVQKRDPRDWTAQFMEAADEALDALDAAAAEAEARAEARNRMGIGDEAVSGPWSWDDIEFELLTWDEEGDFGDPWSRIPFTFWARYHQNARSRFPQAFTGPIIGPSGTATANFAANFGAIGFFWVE
Test: co-IP; magnetic beads with rabbit polyclonal anti-Mage-D1 antibody (2 h), then E19.5 d rat EMSC protein lysate overnight at 4 °C; Western blot for p75NTR, Dlx1, Msx1

The chains behind the UniProt entries cited, without tags or fusion partners. Residues count along the entry.
UniProt P07174, residues 30-425: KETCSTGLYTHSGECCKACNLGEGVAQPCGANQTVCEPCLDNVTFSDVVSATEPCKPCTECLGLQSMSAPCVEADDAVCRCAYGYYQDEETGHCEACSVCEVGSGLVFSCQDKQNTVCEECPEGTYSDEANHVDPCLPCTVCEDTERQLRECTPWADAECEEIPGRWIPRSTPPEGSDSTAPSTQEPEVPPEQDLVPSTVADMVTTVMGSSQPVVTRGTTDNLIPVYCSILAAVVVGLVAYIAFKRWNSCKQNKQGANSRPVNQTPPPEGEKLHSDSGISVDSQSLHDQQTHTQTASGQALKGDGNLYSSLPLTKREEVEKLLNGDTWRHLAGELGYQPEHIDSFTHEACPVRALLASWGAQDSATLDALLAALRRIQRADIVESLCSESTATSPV

binding: binds
Substance: p75 neurotrophin receptor (p75NTR) (from UniProt P07174 30-425)

Source: publication PMC9803661
